The record followed here is the supplement of paper PMC12819154, “High-throughput peptide-centric local stability assay extends protein–ligand identification to membrane proteins, tissues and bacteria” (Nature Structural & Molecular Biology, 2025).

Sequences of proteins named here, by UniProt entry; tags and fusion partners are left off. A change or cut given only in a name is not applied to a line headed by its entry.
UniProt Q9UPY3: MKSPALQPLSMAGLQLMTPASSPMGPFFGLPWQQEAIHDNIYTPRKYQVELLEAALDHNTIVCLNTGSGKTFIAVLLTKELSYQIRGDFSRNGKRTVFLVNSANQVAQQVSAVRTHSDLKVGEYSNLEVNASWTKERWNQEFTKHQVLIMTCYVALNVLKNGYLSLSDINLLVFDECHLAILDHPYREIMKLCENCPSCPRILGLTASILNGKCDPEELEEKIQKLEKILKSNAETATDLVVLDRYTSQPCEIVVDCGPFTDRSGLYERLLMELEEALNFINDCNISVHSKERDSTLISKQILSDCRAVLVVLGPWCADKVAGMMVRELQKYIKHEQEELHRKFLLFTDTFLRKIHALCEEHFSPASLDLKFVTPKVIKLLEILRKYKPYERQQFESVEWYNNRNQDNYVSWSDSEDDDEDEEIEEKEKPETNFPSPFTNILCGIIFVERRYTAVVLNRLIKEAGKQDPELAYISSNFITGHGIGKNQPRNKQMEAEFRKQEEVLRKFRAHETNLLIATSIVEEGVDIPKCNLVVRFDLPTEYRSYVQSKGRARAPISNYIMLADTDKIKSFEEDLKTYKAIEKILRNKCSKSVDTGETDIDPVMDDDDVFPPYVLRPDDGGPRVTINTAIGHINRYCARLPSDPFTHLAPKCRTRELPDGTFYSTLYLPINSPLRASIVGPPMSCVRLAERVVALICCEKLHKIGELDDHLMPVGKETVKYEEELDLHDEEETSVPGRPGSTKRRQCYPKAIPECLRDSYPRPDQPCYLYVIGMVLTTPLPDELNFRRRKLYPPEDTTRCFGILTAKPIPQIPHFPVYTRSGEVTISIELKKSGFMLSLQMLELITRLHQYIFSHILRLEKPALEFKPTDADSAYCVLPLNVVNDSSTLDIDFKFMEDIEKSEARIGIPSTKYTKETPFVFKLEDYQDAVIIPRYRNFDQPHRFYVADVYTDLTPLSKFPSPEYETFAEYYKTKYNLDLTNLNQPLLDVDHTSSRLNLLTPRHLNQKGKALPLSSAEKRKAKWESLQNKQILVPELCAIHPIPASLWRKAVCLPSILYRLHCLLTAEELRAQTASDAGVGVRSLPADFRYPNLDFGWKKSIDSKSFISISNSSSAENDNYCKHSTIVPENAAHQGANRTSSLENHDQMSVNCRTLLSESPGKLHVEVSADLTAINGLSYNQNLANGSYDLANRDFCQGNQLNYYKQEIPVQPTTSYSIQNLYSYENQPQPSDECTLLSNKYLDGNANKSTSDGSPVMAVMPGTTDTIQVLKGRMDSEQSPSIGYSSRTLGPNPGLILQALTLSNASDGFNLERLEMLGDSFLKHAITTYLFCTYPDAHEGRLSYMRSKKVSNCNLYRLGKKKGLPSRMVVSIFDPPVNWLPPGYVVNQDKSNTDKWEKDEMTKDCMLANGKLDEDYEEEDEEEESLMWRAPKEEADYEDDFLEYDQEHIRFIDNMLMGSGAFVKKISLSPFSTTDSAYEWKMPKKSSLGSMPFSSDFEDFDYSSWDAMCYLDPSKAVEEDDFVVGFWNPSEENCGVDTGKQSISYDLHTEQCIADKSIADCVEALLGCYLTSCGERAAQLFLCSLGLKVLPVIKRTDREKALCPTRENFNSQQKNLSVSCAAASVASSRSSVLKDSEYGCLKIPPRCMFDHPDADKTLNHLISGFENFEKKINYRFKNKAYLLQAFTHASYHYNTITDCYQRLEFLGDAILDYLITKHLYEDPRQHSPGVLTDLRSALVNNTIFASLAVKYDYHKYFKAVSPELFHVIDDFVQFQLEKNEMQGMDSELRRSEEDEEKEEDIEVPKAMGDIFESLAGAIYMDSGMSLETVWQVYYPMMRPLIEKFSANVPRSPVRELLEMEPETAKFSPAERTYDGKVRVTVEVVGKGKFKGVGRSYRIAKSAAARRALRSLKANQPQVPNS
UniProt Q9UNA4: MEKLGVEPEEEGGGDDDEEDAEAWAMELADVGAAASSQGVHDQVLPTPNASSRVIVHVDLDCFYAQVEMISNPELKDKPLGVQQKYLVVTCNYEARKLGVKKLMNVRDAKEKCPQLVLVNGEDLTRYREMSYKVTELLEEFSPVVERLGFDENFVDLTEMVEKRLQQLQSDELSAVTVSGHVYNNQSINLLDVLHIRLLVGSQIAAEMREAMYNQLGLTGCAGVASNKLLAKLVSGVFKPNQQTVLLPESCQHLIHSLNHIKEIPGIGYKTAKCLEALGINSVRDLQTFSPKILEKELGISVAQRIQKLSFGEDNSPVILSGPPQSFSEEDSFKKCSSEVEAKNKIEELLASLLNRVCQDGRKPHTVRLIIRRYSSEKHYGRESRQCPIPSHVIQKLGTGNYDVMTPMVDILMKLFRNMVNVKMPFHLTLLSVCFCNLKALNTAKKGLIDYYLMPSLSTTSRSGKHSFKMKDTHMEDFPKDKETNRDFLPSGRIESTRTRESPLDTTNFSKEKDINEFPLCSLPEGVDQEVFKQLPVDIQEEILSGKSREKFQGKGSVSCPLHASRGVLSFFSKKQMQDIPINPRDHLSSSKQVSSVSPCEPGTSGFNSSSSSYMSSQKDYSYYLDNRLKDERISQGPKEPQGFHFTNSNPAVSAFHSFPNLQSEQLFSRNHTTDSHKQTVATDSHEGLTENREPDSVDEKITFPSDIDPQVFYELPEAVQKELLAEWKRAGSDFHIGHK
UniProt Q9Y2G3: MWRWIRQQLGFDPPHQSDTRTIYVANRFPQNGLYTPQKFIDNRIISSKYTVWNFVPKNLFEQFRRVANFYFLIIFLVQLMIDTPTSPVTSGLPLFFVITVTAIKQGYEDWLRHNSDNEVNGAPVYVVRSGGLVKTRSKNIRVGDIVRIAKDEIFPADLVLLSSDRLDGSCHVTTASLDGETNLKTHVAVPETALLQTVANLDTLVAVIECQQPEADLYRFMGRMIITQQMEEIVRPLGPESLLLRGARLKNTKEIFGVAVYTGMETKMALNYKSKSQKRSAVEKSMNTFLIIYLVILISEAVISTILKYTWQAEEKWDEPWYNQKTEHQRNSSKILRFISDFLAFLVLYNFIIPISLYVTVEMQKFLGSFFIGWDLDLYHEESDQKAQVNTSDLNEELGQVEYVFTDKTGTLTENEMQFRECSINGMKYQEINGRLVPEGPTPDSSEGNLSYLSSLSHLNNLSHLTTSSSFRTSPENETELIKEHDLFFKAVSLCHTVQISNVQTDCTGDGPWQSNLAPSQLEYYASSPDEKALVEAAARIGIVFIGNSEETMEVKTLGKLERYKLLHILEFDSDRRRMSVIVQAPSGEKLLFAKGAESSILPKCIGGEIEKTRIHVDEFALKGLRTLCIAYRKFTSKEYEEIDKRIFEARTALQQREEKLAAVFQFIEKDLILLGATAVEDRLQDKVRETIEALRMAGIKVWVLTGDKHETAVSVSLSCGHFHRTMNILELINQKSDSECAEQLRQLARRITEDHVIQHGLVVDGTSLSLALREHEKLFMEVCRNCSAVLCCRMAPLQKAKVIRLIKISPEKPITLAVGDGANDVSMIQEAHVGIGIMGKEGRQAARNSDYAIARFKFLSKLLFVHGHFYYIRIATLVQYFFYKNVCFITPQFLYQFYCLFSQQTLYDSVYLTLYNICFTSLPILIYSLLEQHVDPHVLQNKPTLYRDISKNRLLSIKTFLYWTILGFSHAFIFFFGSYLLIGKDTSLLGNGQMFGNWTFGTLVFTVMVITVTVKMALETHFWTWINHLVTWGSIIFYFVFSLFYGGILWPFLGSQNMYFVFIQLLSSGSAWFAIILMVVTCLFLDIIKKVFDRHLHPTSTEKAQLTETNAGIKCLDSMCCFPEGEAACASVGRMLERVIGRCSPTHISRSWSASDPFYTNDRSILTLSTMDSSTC
UniProt Q9UPV0, whole entry, looked up: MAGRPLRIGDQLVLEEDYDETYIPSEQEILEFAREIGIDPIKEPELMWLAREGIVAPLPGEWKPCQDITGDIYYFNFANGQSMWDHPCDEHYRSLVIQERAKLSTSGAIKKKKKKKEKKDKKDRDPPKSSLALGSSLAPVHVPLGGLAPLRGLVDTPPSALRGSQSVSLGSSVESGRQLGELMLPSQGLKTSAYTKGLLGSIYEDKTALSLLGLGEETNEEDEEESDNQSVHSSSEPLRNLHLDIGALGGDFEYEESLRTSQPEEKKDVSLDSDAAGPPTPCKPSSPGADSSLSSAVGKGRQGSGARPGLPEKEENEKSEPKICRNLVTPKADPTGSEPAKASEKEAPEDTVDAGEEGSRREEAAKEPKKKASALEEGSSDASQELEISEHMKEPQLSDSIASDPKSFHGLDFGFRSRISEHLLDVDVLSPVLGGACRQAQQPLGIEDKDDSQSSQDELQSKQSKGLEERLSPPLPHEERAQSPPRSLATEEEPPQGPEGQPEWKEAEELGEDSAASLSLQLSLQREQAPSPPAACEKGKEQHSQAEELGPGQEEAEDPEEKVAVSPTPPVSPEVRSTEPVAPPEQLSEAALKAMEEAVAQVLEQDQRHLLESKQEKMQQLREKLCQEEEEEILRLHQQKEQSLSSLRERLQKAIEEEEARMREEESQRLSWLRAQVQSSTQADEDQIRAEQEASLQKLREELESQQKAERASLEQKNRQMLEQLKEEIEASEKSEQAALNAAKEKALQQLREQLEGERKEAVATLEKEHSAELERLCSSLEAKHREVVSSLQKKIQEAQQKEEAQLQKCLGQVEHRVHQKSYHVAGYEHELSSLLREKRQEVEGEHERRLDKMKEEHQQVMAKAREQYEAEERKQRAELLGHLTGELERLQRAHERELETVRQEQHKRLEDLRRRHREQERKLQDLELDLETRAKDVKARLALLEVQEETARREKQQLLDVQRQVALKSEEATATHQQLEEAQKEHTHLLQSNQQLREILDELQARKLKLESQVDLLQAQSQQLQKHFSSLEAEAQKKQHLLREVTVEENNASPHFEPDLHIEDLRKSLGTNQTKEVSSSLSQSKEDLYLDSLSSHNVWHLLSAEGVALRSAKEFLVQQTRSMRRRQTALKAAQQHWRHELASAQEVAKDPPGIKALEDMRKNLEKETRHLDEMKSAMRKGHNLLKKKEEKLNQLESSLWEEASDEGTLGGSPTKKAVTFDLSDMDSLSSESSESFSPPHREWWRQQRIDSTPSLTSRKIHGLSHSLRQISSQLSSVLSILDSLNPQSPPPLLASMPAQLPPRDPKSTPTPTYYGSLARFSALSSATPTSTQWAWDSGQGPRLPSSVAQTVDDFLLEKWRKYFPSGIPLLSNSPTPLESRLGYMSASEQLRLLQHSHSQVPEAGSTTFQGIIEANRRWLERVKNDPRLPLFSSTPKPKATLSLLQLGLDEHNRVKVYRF
UniProt Q9ULP9: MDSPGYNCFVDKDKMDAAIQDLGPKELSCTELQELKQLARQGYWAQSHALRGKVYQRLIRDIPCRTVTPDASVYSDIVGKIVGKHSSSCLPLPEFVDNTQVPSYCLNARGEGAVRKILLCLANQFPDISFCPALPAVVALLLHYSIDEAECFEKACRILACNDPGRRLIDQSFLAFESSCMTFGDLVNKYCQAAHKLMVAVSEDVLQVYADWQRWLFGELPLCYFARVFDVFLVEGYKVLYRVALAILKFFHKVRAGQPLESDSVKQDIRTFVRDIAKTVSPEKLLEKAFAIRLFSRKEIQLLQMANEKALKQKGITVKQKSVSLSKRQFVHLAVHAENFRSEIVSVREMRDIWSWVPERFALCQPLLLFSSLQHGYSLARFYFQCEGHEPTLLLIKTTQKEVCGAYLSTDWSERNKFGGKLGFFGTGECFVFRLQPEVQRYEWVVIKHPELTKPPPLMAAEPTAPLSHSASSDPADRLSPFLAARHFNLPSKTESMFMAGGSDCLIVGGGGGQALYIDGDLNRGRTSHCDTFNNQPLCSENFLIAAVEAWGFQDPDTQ
UniProt Q9Y2V2: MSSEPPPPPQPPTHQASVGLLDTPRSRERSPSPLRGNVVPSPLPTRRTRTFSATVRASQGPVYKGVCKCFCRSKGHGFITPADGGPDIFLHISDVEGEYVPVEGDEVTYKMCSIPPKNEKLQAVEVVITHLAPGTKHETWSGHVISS
UniProt Q9UMS4: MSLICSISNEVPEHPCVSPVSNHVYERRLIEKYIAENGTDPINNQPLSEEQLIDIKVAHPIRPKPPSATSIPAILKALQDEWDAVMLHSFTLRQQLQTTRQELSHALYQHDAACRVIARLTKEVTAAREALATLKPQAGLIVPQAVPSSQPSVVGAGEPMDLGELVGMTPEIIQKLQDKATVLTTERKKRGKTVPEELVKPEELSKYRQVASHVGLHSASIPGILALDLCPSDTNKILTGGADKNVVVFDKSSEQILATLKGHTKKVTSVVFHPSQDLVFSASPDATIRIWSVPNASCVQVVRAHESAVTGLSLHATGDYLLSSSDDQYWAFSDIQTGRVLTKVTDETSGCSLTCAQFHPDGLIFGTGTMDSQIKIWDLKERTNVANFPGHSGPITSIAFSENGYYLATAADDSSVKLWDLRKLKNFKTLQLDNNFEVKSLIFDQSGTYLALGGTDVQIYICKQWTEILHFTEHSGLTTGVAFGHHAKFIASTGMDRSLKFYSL

Some of the results follow. Most entries show no effect beyond the scatter of the controls.

Compound in this assay: CN[C@@H]1C[C@H]2O[C@@](C)([C@@H]1OC)n1c3ccccc3c3c4c(c5c6ccccc6n2c5c31)C(=O)NC4 [staurosporine]
The experiment in a line: log2 fold change of tryptic peptide abundance, ligand vs vehicle (limited proteolysis) (log2 ratio); higher = more trypsin-susceptible (destabilized). The settings on record: ligand concentration: 20 uM; sample: K562 cleared lysate; digestion: 4 min, 22 C (HT-PELSA RT4min, Orbitrap Astral).
For the target “DICER1 (peptide sequence: LPSDPFTHLAPK, peptide start residue: 641) (UniProt Q9UPY3)”, the log2 fold change was 0.35.

With “RCL1 (peptide sequence: IETKPCGEELK, peptide start residue: 341) (UniProt Q9Y2P8)”, the log2 fold change was -1.28.

For “MTO1 (peptide sequence: LKIEATYESVLFHQLQEIK, peptide start residue: 607) (UniProt Q9Y2Z2)”, the log2 fold change amounted to 0.268. In the case of “CHKB (peptide sequence: AAEATAVAGSGAVGGCLAK, peptide start residue: 2) (UniProt Q9Y259)”, the log2 fold change is -0.378. Take “CHMP2B (peptide sequence: TMQAVNKK, peptide start residue: 108) (UniProt Q9UQN3)”: the log2 fold change was 0.166. As to “INTU (peptide sequence: RETSHPR, peptide start residue: 269) (UniProt Q9ULD6)”, the log2 fold change worked out at 0.965. “PA2G4 (peptide sequence: AFFSEVER, peptide start residue: 264) (UniProt Q9UQ80)”: the log2 fold change was -0.137. Regarding “UniProt Q9Y2K5 (peptide sequence: TEADKLFTQLAMSGAK, peptide start residue: 881)”, the log2 fold change is -0.202. In the case of “CORO1C (peptide sequence: NILDSKPTANKK, peptide start residue: 408) (UniProt Q9ULV4)”, the log2 fold change was found to be 0.0765. On to “UniProt Q9UKV8 (peptide sequence: AVQVHQDTLRTMYFA, peptide start residue: 845)”, for which the log2 fold change was determined as 0.74. As to “TIMELESS (peptide sequence: KQIIHHLVQMGLADSVK, peptide start residue: 861) (UniProt Q9UNS1)”, the log2 fold change was found to be 0.567. Take “POLI (peptide sequence: DKPLGVQQK, peptide start residue: 77) (UniProt Q9UNA4)”: the log2 fold change amounted to 0.177. For “ATP11B (peptide sequence: CSPTHISR, peptide start residue: 1144) (UniProt Q9Y2G3)”, the log2 fold change is 0.0488.

Regarding “AP4E1 (peptide sequence: DQSQVLTQSKEEKEK, peptide start residue: 749) (UniProt Q9UPM8)”, the log2 fold change is -0.212.

With “CEP164 (peptide sequence: IDSTPSLTSR, peptide start residue: 1250) (UniProt Q9UPV0)”, the log2 fold change is -0.39. Take “KIDINS220 (peptide sequence: NIEVVELLLDKGAK, peptide start residue: 347) (UniProt Q9ULH0)”: the log2 fold change worked out at 0.511. To “RCOR1 (peptide sequence: IQQMLPDKSIASLVK, peptide start residue: 217) (UniProt Q9UKL0)” belongs 0.141. In the case of “TBC1D24 (peptide sequence: MDAAIQDLGPK, peptide start residue: 15) (UniProt Q9ULP9)” it was 0.495; in that of “PLAA (peptide sequence: ELSHATIDSK, peptide start residue: 316) (UniProt Q9Y263)”, 0.76; in that of “NOL7 (peptide sequence: VKEVNLQKK, peptide start residue: 137) (UniProt Q9UMY1)”, 1.05. Consider “PARP4 (peptide sequence: VEDYQLPDAK, peptide start residue: 595) (UniProt Q9UKK3)”, for which the log2 fold change amounted to 0.27. “UniProt Q9Y2G7 (peptide sequence: WTLDLESR, peptide start residue: 76)”: the log2 fold change came out at 0.29. With “CARHSP1 (peptide sequence: LQAVEVVITHLAPGTK, peptide start residue: 121) (UniProt Q9Y2V2)”, the log2 fold change came to 0.105. In the case of “PRR12 (peptide sequence: GGETPEGLATSVVHYGAGAK, peptide start residue: 735) (UniProt Q9ULL5)” it was 0.257. With “MYH15 (peptide sequence: LFDNHFGK, peptide start residue: 564) (UniProt Q9Y2K3)”, the log2 fold change was 0.372. As for “PRPF19 (peptide sequence: KVTSVVFHPSQDLVFSASPDATIR, peptide start residue: 266) (UniProt Q9UMS4)”, the log2 fold change is -0.219.
